Assay results from the supplement of paper PMC10849652.
The list shows a part of the results.

Chains of the proteins cited; added tags and fusions are not shown. Lines headed by an entry give the natural chain unless they say otherwise; changes in a name come on top.
UniProt Q13895: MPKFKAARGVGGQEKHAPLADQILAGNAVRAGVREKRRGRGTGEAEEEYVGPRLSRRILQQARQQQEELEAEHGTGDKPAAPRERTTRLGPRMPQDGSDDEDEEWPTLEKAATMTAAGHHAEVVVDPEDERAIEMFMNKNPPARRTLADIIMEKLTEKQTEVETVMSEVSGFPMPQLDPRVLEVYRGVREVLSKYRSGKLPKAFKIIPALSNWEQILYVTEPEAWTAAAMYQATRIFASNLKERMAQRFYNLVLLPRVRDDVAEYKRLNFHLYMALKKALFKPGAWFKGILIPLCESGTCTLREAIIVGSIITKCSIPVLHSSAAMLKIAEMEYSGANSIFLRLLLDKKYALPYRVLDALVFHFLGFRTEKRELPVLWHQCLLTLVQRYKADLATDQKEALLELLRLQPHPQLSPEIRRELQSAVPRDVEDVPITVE
UniProt Q8NDD1: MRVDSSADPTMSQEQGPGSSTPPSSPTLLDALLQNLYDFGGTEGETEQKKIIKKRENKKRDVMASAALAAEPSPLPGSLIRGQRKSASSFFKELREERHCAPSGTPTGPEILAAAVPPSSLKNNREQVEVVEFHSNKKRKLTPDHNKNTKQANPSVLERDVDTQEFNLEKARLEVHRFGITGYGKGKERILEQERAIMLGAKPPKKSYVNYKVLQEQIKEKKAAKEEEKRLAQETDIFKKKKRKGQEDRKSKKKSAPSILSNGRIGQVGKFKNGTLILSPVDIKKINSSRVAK
UniProt Q9BSJ5: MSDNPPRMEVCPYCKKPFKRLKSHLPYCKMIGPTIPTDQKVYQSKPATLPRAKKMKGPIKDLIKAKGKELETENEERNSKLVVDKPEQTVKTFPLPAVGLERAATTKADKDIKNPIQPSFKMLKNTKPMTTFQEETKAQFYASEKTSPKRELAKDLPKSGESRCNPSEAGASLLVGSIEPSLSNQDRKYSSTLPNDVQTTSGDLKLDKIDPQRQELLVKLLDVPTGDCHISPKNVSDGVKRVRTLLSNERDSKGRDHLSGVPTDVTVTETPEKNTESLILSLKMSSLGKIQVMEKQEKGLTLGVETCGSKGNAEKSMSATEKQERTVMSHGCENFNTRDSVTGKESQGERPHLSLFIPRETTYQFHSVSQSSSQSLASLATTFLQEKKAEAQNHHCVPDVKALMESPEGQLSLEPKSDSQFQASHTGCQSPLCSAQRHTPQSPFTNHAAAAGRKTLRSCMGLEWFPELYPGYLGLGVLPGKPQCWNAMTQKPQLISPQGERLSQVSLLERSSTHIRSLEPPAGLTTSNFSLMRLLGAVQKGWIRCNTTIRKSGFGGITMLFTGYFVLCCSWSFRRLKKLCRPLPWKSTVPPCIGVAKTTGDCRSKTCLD
UniProt Q49AR2: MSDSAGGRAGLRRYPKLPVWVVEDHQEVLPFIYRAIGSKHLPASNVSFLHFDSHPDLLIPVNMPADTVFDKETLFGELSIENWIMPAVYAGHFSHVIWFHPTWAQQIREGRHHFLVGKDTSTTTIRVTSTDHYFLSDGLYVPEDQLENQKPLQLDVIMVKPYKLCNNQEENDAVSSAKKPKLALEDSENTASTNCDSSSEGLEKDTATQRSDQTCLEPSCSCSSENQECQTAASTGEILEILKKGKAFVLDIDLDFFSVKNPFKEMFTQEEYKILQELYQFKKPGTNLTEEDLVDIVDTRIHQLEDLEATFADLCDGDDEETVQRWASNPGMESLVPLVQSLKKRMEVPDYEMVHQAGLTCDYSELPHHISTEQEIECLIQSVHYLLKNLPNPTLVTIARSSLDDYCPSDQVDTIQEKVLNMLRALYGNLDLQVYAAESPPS
UniProt Q96LW7: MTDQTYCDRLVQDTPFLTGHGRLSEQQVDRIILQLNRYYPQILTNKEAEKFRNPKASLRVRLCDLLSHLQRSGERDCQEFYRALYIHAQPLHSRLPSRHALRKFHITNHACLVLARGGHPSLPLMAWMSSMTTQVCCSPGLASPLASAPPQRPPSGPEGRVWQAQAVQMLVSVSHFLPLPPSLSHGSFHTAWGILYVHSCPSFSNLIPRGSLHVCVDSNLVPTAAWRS
UniProt Q8TCD1: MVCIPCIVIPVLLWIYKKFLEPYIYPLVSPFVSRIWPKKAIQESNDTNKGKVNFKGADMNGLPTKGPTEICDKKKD

What was measured:
Assay in all cases: log2 fold change, soluble protein after heating vs DMSO (PISA); higher = thermal stabilisation; K562 cells, 10 uM, 30 min; active = over 0.2 and 3.5 SD of the protein, either way, in both replicates (recomputed)
bafetinib = compound: Cc1ccc(NC(=O)c2ccc(CN3CC[C@H](N(C)C)C3)c(C(F)(F)F)c2)cc1Nc1nccc(-c2cncnc2)n1 [bafetinib]
Procedure, shortened: (§1)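 K562 cells (2×10^6 cells/mL) were treated with 10 μM compound for 30 min, and aliquots were heated for 3 min over 48°C-58°C. Pooled aliquots were extracted in PBS with 0.5% NP-40 at 4°C, and the supernatant after 21,000xg for 90 min was measured by TMTpro 16plex LC-MS/MS with channel sums equalised. Reported thermal stability, relative to control samples and from duplicates, is a log2 fold change.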

[1] = compound: Cc1cccc(CC(=O)N2CCc3c2ccc(-c2cn(C)c4ncnc(N)c24)c3F)n1
Procedure, shortened: as §1

nilotinib = compound: Cc1cn(-c2cc(NC(=O)c3ccc(C)c(Nc4nccc(-c5cccnc5)n4)c3)cc(C(F)(F)F)c2)cn1 [nilotinib]
Procedure, shortened: as §1

[2] = compound: Cc1nc(Nc2n[nH]c3c2CN(C(=O)N[C@H](CN(C)C)c2ccccc2)C3(C)C)c2sccc2n1
Procedure, shortened: as §1

dasatinib = compound: Cc1nc(Nc2ncc(C(=O)Nc3c(C)cccc3Cl)s2)cc(N2CCN(CCO)CC2)n1 [dasatinib]
Procedure, shortened: as §1

[3] = compound: Cc1ncc(-c2ccnc(Nc3ccc(S(C)(=O)=O)cc3)n2)n1C(C)C
Procedure, shortened: as §1

[4] = compound: Cn1cc(-c2ccc3c(c2)CCN3C(=O)Cc2cccc(C(F)(F)F)c2)c2c(N)ncnc21
Procedure, shortened: as §1

[5] = compound: Cn1cc(-c2ccc3nnc(C(F)(F)c4ccc5ncccc5c4)n3n2)cn1
Procedure, shortened: as §1

tipifarnib = compound: Cn1cncc1[C@@](N)(c1ccc(Cl)cc1)c1ccc2c(c1)c(-c1cccc(Cl)c1)cc(=O)n2C [tipifarnib]
Procedure, shortened: as §1

mubritinib = compound: FC(F)(F)c1ccc(/C=C/c2nc(COc3ccc(CCCCn4ccnn4)cc3)co2)cc1 [mubritinib]
Procedure, shortened: as §1

[6] = compound: NC(=O)Nc1cc(-c2cccc(F)c2)sc1C(=O)N[C@H]1CCCNC1
Procedure, shortened: as §1

[7] = compound: NC(=O)c1cnc(N[C@@H]2CCCC[C@@H]2N)nc1Nc1cccc(-n2nccn2)c1
Procedure, shortened: as §1

[8] = compound: NC1(c2ccc(-c3nc4ccn5c(=O)[nH]nc5c4cc3-c3ccccc3)cc2)CCC1
Procedure, shortened: as §1

[9] = compound: NCC(=O)Nc1ccc(-n2nc(C(F)(F)F)cc2-c2ccc3c(ccc4ccccc43)c2)cc1
Procedure, shortened: as §1

entinostat = compound: Nc1ccccc1NC(=O)c1ccc(CNC(=O)OCc2cccnc2)cc1 [entinostat]
Procedure, shortened: as §1

vorinostat = compound: O=C(CCCCCCC(=O)Nc1ccccc1)NO [vorinostat]
Procedure, shortened: as §1

citarinostat = compound: O=C(CCCCCCNC(=O)c1cnc(N(c2ccccc2)c2ccccc2Cl)nc1)NO [citarinostat]
Procedure, shortened: as §1

silmitasertib = compound: O=C(O)c1ccc2c(c1)nc(Nc1cccc(Cl)c1)c1ccncc12 [silmitasertib]
Procedure, shortened: as §1

[10] = compound: O=C1NC(=O)C(c2cnc3ccccn23)=C1c1cn2c3c(cc(F)cc13)CN(C(=O)N1CCCCC1)CC2
Procedure, shortened: as §1

[11] = compound: c1cc(OCCN2CCCCC2)cc(-c2n[nH]c3ccc(-c4nnc[nH]4)cc23)c1
Procedure, shortened: as §1

Measured: log2 fold change

BYSL (UniProt Q13895)
inactive: bafetinib 0.118 | [1] 0.034 | nilotinib -0.131 | [2] 0.163 | dasatinib -0.082 | [3] 0.064 | [4] -0.05 | [5] -0.003 | tipifarnib -0.063 | mubritinib 0.062 | [6] -0.012 | [7] 0.053 | [8] -0.052 | [9] 0.062 | entinostat 0.046 | vorinostat 0.058 | citarinostat -0.007 | silmitasertib 0.085 | [10] 0.068 | [11] 0.001

BTF3L4 (UniProt Q96K17)
inactive: bafetinib -0.066 | [1] -0.022 | nilotinib 0.014 | [2] 0.016 | dasatinib 0.045 | [3] -0.003 | [4] 0.017 | [5] 0.024 | tipifarnib 0.014 | mubritinib 0.005 | [6] 0.043 | [7] 0.053 | [8] 0.09 | [9] 0.054 | entinostat -0.027 | vorinostat 0.008 | citarinostat 0.031 | silmitasertib -0.031 | [10] 0.028 | [11] -0.028

C1orf131 isoform 5 (UniProt Q8NDD1)
inactive: bafetinib 0.147 | [1] -0.055 | nilotinib -0.001 | [2] 0.1 | dasatinib 0.123 | [3] -0.097 | [4] -0.176 | [5] -0.115 | tipifarnib 0.203 | mubritinib -0.118 | [6] 0.044 | [7] 0.053 | [8] 0.235 | [9] 0.103 | entinostat -0.081 | vorinostat 0 | citarinostat -0.045 | silmitasertib 0.17 | [10] 0.151 | [11] -0.178

C17orf80 (UniProt Q9BSJ5)
inactive: bafetinib -0.019 | [1] -0.03 | nilotinib -0.018 | [2] 0.023 | dasatinib -0.055 | [3] 0.128 | [4] 0.183 | [5] 0.006 | tipifarnib 0.106 | mubritinib 0.209 | [6] -0.019 | [7] 0.035 | [8] -0.069 | [9] 0.16 | entinostat 0.065 | vorinostat -0.068 | citarinostat 0.013 | silmitasertib 0.162 | [10] -0.116 | [11] -0.014

C5orf22 (UniProt Q49AR2)
inactive: bafetinib -0.041 | [1] 0.024 | nilotinib -0.026 | [2] 0.074 | dasatinib -0.089 | [3] -0.024 | [4] 0.107 | [5] 0.009 | tipifarnib -0.053 | mubritinib 0.132 | [6] -0.008 | [7] -0.055 | [8] -0.057 | [9] -0.109 | entinostat 0.008 | vorinostat -0.003 | citarinostat 0.025 | silmitasertib -0.033 | [10] -0.018 | [11] -0.026

CARD19 isoform 2 (UniProt Q96LW7)
inactive: bafetinib -0.034 | [1] 0.037 | dasatinib -0.018 | [4] 0.165 | [5] 0.068 | mubritinib -0.084 | [7] 0.086 | [8] 0.116 | [9] -0.121 | vorinostat 0.009 | citarinostat 0.03 | silmitasertib 0.029 | [10] 0.108 | [11] 0.003

C18orf32 (UniProt Q8TCD1)
inactive: bafetinib -0.167 | [1] -0.112 | nilotinib 0.037 | [2] 0.051 | [3] -0.101 | [4] 0.072 | [5] 0.078 | tipifarnib 0.062 | mubritinib 0 | [6] -0.014 | [7] 0.049 | [8] 0.037 | [9] -0.101 | entinostat 0.018 | vorinostat -0.171 | citarinostat -0.003 | silmitasertib 0.004 | [10] -0.108 | [11] -0.019

C20orf27 isoform 2 (UniProt Q9GZN8)
inactive: bafetinib 0.033 | [1] 0.064 | nilotinib 0.02 | [2] 0.025 | dasatinib -0.136 | [3] -0.003 | [4] 0.069 | [5] -0.028 | tipifarnib -0.121 | mubritinib 0.008 | [6] 0.014 | [7] -0.063 | [8] -0.017 | [9] -0.043 | entinostat 0.033 | vorinostat 0.113 | citarinostat 0.051 | silmitasertib -0.013 | [10] -0.108 | [11] -0.047

Retrieved one by one from above (2):
C17orf80 (UniProt Q9BSJ5)
inactive: bafetinib -0.019 | [1] -0.03 | nilotinib -0.018 | [2] 0.023 | dasatinib -0.055 | [3] 0.128 | [4] 0.183 | [5] 0.006 | tipifarnib 0.106 | mubritinib 0.209 | [6] -0.019 | [7] 0.035 | [8] -0.069 | [9] 0.16 | entinostat 0.065 | vorinostat -0.068 | citarinostat 0.013 | silmitasertib 0.162 | [10] -0.116 | [11] -0.014

C20orf27 isoform 2 (UniProt Q9GZN8)
inactive: bafetinib 0.033 | [1] 0.064 | nilotinib 0.02 | [2] 0.025 | dasatinib -0.136 | [3] -0.003 | [4] 0.069 | [5] -0.028 | tipifarnib -0.121 | mubritinib 0.008 | [6] 0.014 | [7] -0.063 | [8] -0.017 | [9] -0.043 | entinostat 0.033 | vorinostat 0.113 | citarinostat 0.051 | silmitasertib -0.013 | [10] -0.108 | [11] -0.047
